# From the supplement of paper PMC8728848
# The list shows a part of the results.
# Key:
# Experiment in all cases: glycan array binding signal (z-score within array); higher = stronger binding
# Settings in all cases: glycan notation: IUPAC condensed, linker removed
# [1] = molecular target: GlcNAc(b1-3)Gal(b1-4)Glc
# Outline: (§1)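 The binding signal is a Z-score computed within each array. Data were drawn from 3228 arrays in the Consortium for Functional Glycomics database, restricted to those with a known protein sequence. Scores were averaged over arrays of the same protein sequence at different concentrations or buffers, and over linkers, and negative values can be taken as non-binding.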
# [2] = molecular target: GlcNAc(b1-3)Gal(b1-4)GlcNAc
# Outline: as §1
# [3] = molecular target: GlcNAc(b1-3)Gal(b1-4)GlcNAc(b1-2)Man(a1-3)[GlcNAc(b1-3)Gal(b1-4)GlcNAc(b1-2)Man(a1-6)]Man(b1-4)GlcNAc(b1-4)GlcNAc
# Outline: as §1
# [4] = molecular target: GlcNAc(b1-3)Gal(b1-4)GlcNAc(b1-2)Man(a1-3)[GlcNAc(b1-3)Gal(b1-4)GlcNAc(b1-2)Man(a1-6)]Man(b1-4)GlcNAc(b1-4)[Fuc(a1-6)]GlcNAc
# Outline: as §1
# [5] = molecular target: GlcNAc(b1-3)Gal(b1-4)GlcNAc(b1-2)[GlcNAc(b1-3)Gal(b1-4)GlcNAc(b1-6)]Man(a1-6)[GlcNAc(b1-3)Gal(b1-4)GlcNAc(b1-2)Man(a1-3)]Man(b1-4)GlcNAc(b1-4)GlcNAc
# Outline: as §1
# [6] = molecular target: GlcNAc(b1-3)Gal(b1-4)GlcNAc(b1-3)Gal(b1-4)GlcNAc
# Outline: as §1
# [7] = molecular target: GlcNAc(b1-3)Gal(b1-4)GlcNAc(b1-3)Gal(b1-4)GlcNAc(b1-2)Man(a1-3)[GlcNAc(b1-3)Gal(b1-4)GlcNAc(b1-3)Gal(b1-4)GlcNAc(b1-2)Man(a1-6)]Man(b1-4)GlcNAc(b1-4)GlcNAc
# Outline: as §1
# [8] = molecular target: GlcNAc(b1-3)Gal(b1-4)GlcNAc(b1-3)Gal(b1-4)GlcNAc(b1-2)Man(a1-3)[GlcNAc(b1-3)Gal(b1-4)GlcNAc(b1-3)Gal(b1-4)GlcNAc(b1-2)Man(a1-6)]Man(b1-4)GlcNAc(b1-4)[Fuc(a1-6)]GlcNAc
# Outline: as §1
# [9] = molecular target: GlcNAc(b1-3)Gal(b1-4)GlcNAc(b1-3)Gal(b1-4)GlcNAc(b1-2)[GlcNAc(b1-3)Gal(b1-4)GlcNAc(b1-3)Gal(b1-4)GlcNAc(b1-6)]Man(a1-6)[GlcNAc(b1-3)Gal(b1-4)GlcNAc(b1-3)Gal(b1-4)GlcNAc(b1-2)Man(a1-3)]Man(b1-4)GlcNAc(b1-4)[Fuc(a1-6)]GlcNAc
# Outline: as §1
# [10] = molecular target: GlcNAc(b1-3)Gal(b1-4)GlcNAc(b1-3)Gal(b1-4)GlcNAc(b1-3)Gal(b1-4)GlcNAc(b1-2)Man(a1-3)[GlcNAc(b1-3)Gal(b1-4)GlcNAc(b1-3)Gal(b1-4)GlcNAc(b1-3)Gal(b1-4)GlcNAc(b1-2)Man(a1-6)]Man(b1-4)GlcNAc(b1-4)GlcNAc
# Outline: as §1
# [11] = molecular target: GlcNAc(b1-3)Gal(b1-4)GlcNAc(b1-3)Gal(b1-4)GlcNAc(b1-3)Gal(b1-4)GlcNAc(b1-2)Man(a1-3)[GlcNAc(b1-3)Gal(b1-4)GlcNAc(b1-3)Gal(b1-4)GlcNAc(b1-3)Gal(b1-4)GlcNAc(b1-2)Man(a1-6)]Man(b1-4)GlcNAc(b1-4)[Fuc(a1-6)]GlcNAc
# Outline: as §1
# [12] = molecular target: GlcNAc(b1-3)Gal(b1-4)GlcNAc(b1-3)Gal(b1-4)GlcNAc(b1-3)Gal(b1-4)GlcNAc(b1-2)[GlcNAc(b1-3)Gal(b1-4)GlcNAc(b1-3)Gal(b1-4)GlcNAc(b1-3)Gal(b1-4)GlcNAc(b1-6)]Man(a1-6)[GlcNAc(b1-3)Gal(b1-4)GlcNAc(b1-3)Gal(b1-4)GlcNAc(b1-3)Gal(b1-4)GlcNAc(b1-2)Man(a1-3)]Man(b1-4)GlcNAc(b1-4)[Fuc(a1-6)]GlcNAc
# Outline: as §1
# [13] = molecular target: GlcNAc(b1-3)Gal(b1-4)GlcNAc(b1-3)Gal(b1-4)GlcNAc(b1-3)Gal(b1-4)GlcNAc(b1-3)Gal(b1-4)GlcNAc(b1-2)Man(a1-3)[GlcNAc(b1-3)Gal(b1-4)GlcNAc(b1-3)Gal(b1-4)GlcNAc(b1-3)Gal(b1-4)GlcNAc(b1-3)Gal(b1-4)GlcNAc(b1-2)Man(a1-6)]Man(b1-4)GlcNAc(b1-4)GlcNAc
# Outline: as §1
# [14] = molecular target: GlcNAc(b1-3)Gal(b1-4)GlcNAc(b1-3)Gal(b1-4)GlcNAc(b1-3)Gal(b1-4)GlcNAc(b1-3)Gal(b1-4)GlcNAc(b1-2)Man(a1-3)[GlcNAc(b1-3)Gal(b1-4)GlcNAc(b1-3)Gal(b1-4)GlcNAc(b1-3)Gal(b1-4)GlcNAc(b1-3)Gal(b1-4)GlcNAc(b1-2)Man(a1-6)]Man(b1-4)GlcNAc(b1-4)[Fuc(a1-6)]GlcNAc
# Outline: as §1
# [15] = molecular target: GlcNAc(b1-3)Gal(b1-4)GlcNAc(b1-3)Gal(b1-4)GlcNAc(b1-3)Gal(b1-4)GlcNAc(b1-3)Gal(b1-4)GlcNAc(b1-2)[GlcNAc(b1-3)Gal(b1-4)GlcNAc(b1-3)Gal(b1-4)GlcNAc(b1-3)Gal(b1-4)GlcNAc(b1-3)Gal(b1-4)GlcNAc(b1-6)]Man(a1-6)[GlcNAc(b1-3)Gal(b1-4)GlcNAc(b1-3)Gal(b1-4)GlcNAc(b1-3)Gal(b1-4)GlcNAc(b1-3)Gal(b1-4)GlcNAc(b1-2)Man(a1-3)]Man(b1-4)GlcNAc(b1-4)[Fuc(a1-6)]GlcNAc
# Outline: as §1
# [16] = molecular target: GlcNAc(b1-3)Gal(b1-4)GlcNAc(b1-3)Gal(b1-4)GlcNAc(b1-3)GalNAc
# Outline: as §1
# [17] = molecular target: GlcNAc(b1-3)Gal(b1-4)GlcNAc(b1-3)GalNAc
# Outline: as §1
# [18] = molecular target: GlcNAc(b1-3)Gal(b1-4)GlcNAc(b1-3)[GlcNAc(b1-3)Gal(b1-4)GlcNAc(b1-3)]GalNAc
# Outline: as §1
# [19] = molecular target: GlcNAc(b1-3)Gal(b1-4)GlcNAc(b1-6)[Gal(b1-3)]GalNAc
# Outline: as §1
# [20] = molecular target: GlcNAc(b1-3)Gal(b1-4)GlcNAc(b1-6)[GlcNAc(b1-3)Gal(b1-3)]GalNAc
# Outline: as §1
# [21] = molecular target: GlcNAc(b1-3)Gal(b1-4)GlcNAc(b1-6)[GlcNAc(b1-3)]Gal(b1-4)GlcNAc
# Outline: as §1
# [22] = molecular target: GlcNAc(b1-3)GalNAc
# Outline: as §1
# [23] = molecular target: GlcNAc(b1-3)Man
# Outline: as §1
# [24] = molecular target: GlcNAc(b1-3)[GlcNAc(b1-4)][GlcNAc(b1-6)]GlcNAc
# Outline: as §1
# [25] = molecular target: GlcNAc(b1-3)[GlcNAc(b1-6)]Gal(b1-4)GlcNAc
# Outline: as §1
# [26] = molecular target: GlcNAc(b1-3)[GlcNAc(b1-6)]GalNAc
# Outline: as §1
# [27] = molecular target: GlcNAc(b1-4)Gal(b1-4)GlcNAc
# Outline: as §1
# [28] = molecular target: GlcNAc(b1-4)GlcNAc
# Outline: as §1
# [29] = molecular target: GlcNAc(b1-4)GlcNAc(b1-4)GlcNAc
# Outline: as §1
# [30] = molecular target: GlcNAc(b1-4)GlcNAc(b1-4)GlcNAc(b1-4)GlcNAc(b1-4)GlcNAc
# Outline: as §1
# [31] = molecular target: GlcNAc(b1-4)GlcNAc(b1-4)GlcNAc(b1-4)GlcNAc(b1-4)GlcNAc(b1-4)GlcNAc
# Outline: as §1
# [32] = molecular target: GlcNAc(b1-4)[GlcNAc(b1-6)]GalNAc
# Outline: as §1
# [33] = molecular target: GlcNAc(b1-6)Gal(b1-4)GlcNAc
# Outline: as §1
# [34] = molecular target: GlcNAc(b1-6)GalNAc
# Outline: as §1
# [35] = molecular target: GlcNAc6S(b1-3)Gal(b1-4)GlcNAc
# Outline: as §1
# [36] = molecular target: Kdn(a2-3)Gal(b1-3)GalNAc
# Outline: as §1
# [37] = molecular target: Kdn(a2-3)Gal(b1-3)GlcNAc
# Outline: as §1
binder,measurement,setting,value
"SfaEH (Escherichia coli), Q1RDG5 (protein) LLCRNNQTGQVFNSGDTSFRVNVSPVVQYDKSISVLDLSQLVSCQNEDSTGQNYDYLKILKGSGFSPALDTKTYGRLDFTSRPTGYARQLPLQFDLQVTEAFYQYGVWKPFPAKLYLYPAPGVFGKVINNGDLLATLYVNKFSTKGQEAGERNFTWRFYATNDVYIQTGTCRVSSNNVKVDLPSYPGGPVTVPLTVRCDQTQSVSYTLSGPVTGSGNTVFANTAASGSGGVGIQLSDNVGPVPAGQPRSLGQVGSSPVSLGLKASYALTGQASPTPGAVQSVINVTFSYN",glycan array binding signal (z-score),[1],-0.647
same,glycan array binding signal (z-score),[2],-0.979
same,glycan array binding signal (z-score),[3],-0.316
same,glycan array binding signal (z-score),[4],-0.202
same,glycan array binding signal (z-score),[5],2.3
same,glycan array binding signal (z-score),[6],-1.22
same,glycan array binding signal (z-score),[7],1.13
same,glycan array binding signal (z-score),[8],0.293
same,glycan array binding signal (z-score),[9],-0.588
same,glycan array binding signal (z-score),[10],-0.69
same,glycan array binding signal (z-score),[11],0.923
same,glycan array binding signal (z-score),[12],-0.469
same,glycan array binding signal (z-score),[13],-0.262
same,glycan array binding signal (z-score),[14],-0.174
same,glycan array binding signal (z-score),[15],0.251
same,glycan array binding signal (z-score),[16],0.621
same,glycan array binding signal (z-score),[17],0.491
same,glycan array binding signal (z-score),[18],0.026
same,glycan array binding signal (z-score),[19],-0.083
same,glycan array binding signal (z-score),[20],-0.578
same,glycan array binding signal (z-score),[21],-0.044
same,glycan array binding signal (z-score),[22],-0.271
same,glycan array binding signal (z-score),[23],-0.51
same,glycan array binding signal (z-score),[24],0.899
same,glycan array binding signal (z-score),[25],-0.093
same,glycan array binding signal (z-score),[26],0.013
same,glycan array binding signal (z-score),[27],-0.293
same,glycan array binding signal (z-score),[28],-0.35
same,glycan array binding signal (z-score),[29],-0.487
same,glycan array binding signal (z-score),[30],0.079
same,glycan array binding signal (z-score),[31],-0.573
same,glycan array binding signal (z-score),[32],-0.105
same,glycan array binding signal (z-score),[33],0.143
same,glycan array binding signal (z-score),[34],-0.528
same,glycan array binding signal (z-score),[35],0.278
same,glycan array binding signal (z-score),[36],-0.452
same,glycan array binding signal (z-score),[37],0.537

# Nine consecutive records from above:
binder,measurement,setting,value
"SfaEH (Escherichia coli), Q1RDG5 (protein) LLCRNNQTGQVFNSGDTSFRVNVSPVVQYDKSISVLDLSQLVSCQNEDSTGQNYDYLKILKGSGFSPALDTKTYGRLDFTSRPTGYARQLPLQFDLQVTEAFYQYGVWKPFPAKLYLYPAPGVFGKVINNGDLLATLYVNKFSTKGQEAGERNFTWRFYATNDVYIQTGTCRVSSNNVKVDLPSYPGGPVTVPLTVRCDQTQSVSYTLSGPVTGSGNTVFANTAASGSGGVGIQLSDNVGPVPAGQPRSLGQVGSSPVSLGLKASYALTGQASPTPGAVQSVINVTFSYN",glycan array binding signal (z-score),[24],0.899
same,glycan array binding signal (z-score),[25],-0.093
same,glycan array binding signal (z-score),[26],0.013
same,glycan array binding signal (z-score),[27],-0.293
same,glycan array binding signal (z-score),[28],-0.35
same,glycan array binding signal (z-score),[29],-0.487
same,glycan array binding signal (z-score),[30],0.079
same,glycan array binding signal (z-score),[31],-0.573
same,glycan array binding signal (z-score),[32],-0.105
